This is an account of results in publication PMC6265731.

Assay in all cases: split reporter
The target of assay [1] is PLRV P3a with a split-YFP half fused to its N-terminus (Potato leafroll virus) (UniProt P0DTK2).
Assay [2] concerns the target T1, PLRV P17 movement protein with a split-YFP half fused to its C-terminus (Potato leafroll virus) (UniProt P17524).
T1 sequence: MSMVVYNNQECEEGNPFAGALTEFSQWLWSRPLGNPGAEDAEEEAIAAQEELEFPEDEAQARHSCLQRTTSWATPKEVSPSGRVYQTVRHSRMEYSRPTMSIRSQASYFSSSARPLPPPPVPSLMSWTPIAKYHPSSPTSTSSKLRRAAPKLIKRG

Assay [3] concerns the target PLRV P3a with a split-YFP half fused to its C-terminus (Potato leafroll virus) (UniProt P0DTK2).

Results are given in words; binding and its absence hold for the method and conditions named. In cells and extracts the contact can be indirect. Some entries that bind do so weakly or less than the wild type. For some of these results: Where a sequence is shown, tags or fusion partners need not be part of it.

In the case of “PLRV P3a with a split-YFP half fused to its N-terminus (from UniProt P0DTK2 2-45)”, the binding result in assay [1] is recorded as “binds”.

B1: PLRV P17 movement protein with a split-YFP half fused to its C-terminus (protein, UniProt P17524 1-156)
chain: T1 sequence
Turning to B1, the binding result in assay [2] was “binds”. With MDYKFLAGFALGFSSAIPFSVAGLYFVYLKISSHVRSIVNEYGRG (peptide, UniProt P0DTK2 1-45) [PLRV P3a with a split-YFP half fused to its C-terminus], the binding entry in assay [2] and in assay [3] was “binds” throughout.
